# Values quoted from earlier work as cited in US10494420B2, “Mast cell stabilizers for treatment of hypercytokinemia and viral infection” (priority 2016, dated 2019).
# At least one compound was matched to its structure with a doubt left.
# Tests used:
# H5N1 Influenza Virus = conditions: mouse, in vivo
smiles,measurement,setting,value
O=C(O)c1cc(=O)c2c(OCC(O)COc3cccc4oc(C(=O)O)cc(=O)c34)cccc2o1 [cromolyn],survival of mice,H5N1 Influenza Virus,to a lesser extent
same,"mast cell degranulation and release of mediators (histamine, TNF-α, prostaglandins, leukotrienes, interleukins)",mast cells,inhibit mast cell degranulation
